Experimental data reported in the supplement of paper PMC7666118.
Some of the results follow.

Chains of the proteins cited; added tags and fusions are not shown. Lines headed by an entry give the natural chain unless they say otherwise; changes in a name come on top.
UniProt P20936: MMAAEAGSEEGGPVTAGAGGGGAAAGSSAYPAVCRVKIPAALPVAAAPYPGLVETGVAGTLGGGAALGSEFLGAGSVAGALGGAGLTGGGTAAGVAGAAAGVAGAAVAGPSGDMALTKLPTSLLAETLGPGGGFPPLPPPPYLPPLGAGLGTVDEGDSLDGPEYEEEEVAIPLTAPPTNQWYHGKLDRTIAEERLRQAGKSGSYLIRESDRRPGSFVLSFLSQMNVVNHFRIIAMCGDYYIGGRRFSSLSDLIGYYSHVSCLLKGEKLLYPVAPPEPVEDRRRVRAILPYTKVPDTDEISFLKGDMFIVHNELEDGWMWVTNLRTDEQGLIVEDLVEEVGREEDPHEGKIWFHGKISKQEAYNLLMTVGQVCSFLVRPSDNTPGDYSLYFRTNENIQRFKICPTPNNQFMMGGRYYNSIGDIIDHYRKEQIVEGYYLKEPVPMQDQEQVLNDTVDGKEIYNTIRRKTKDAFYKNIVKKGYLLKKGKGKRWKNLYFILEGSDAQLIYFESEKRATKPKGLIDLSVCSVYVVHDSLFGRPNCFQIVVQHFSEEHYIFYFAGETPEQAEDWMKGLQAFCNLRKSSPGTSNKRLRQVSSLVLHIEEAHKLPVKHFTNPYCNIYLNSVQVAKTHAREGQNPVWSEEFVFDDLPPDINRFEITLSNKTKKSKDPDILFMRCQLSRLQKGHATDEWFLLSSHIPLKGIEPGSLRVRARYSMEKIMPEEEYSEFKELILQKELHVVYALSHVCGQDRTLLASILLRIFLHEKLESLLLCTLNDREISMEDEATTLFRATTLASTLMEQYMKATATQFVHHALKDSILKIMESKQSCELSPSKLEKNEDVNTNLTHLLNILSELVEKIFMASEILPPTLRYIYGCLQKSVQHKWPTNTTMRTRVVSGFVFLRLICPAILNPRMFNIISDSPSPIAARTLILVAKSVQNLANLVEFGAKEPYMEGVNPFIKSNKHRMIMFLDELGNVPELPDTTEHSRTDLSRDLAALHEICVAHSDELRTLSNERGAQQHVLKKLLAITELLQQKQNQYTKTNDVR
UniProt Q8WVD3: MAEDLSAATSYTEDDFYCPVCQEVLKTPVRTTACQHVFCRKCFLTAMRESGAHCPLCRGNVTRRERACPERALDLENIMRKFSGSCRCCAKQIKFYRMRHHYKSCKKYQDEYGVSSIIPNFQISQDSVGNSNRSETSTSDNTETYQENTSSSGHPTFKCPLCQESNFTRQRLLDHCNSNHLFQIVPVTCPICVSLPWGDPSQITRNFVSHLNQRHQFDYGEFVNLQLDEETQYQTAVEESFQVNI
UniProt Q9NR77: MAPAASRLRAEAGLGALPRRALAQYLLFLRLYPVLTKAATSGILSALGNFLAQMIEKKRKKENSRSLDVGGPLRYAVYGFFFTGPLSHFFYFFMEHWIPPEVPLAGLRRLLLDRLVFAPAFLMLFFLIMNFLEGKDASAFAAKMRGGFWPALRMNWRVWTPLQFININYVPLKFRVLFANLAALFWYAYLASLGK
UniProt Q8IUW5: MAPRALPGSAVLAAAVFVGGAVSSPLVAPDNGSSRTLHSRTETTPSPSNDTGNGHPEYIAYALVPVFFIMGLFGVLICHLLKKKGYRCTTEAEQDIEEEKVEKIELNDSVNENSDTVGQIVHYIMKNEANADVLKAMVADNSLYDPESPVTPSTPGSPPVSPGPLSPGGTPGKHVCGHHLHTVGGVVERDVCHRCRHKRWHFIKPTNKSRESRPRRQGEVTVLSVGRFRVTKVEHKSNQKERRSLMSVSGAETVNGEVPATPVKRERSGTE
UniProt Q9H0Z9: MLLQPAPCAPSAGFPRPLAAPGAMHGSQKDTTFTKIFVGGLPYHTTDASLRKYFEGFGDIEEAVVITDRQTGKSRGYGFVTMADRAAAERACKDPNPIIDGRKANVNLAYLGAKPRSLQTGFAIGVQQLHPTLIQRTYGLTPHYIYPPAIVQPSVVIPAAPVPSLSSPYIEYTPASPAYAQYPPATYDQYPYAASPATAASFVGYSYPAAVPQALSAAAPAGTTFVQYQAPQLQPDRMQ
UniProt Q04864: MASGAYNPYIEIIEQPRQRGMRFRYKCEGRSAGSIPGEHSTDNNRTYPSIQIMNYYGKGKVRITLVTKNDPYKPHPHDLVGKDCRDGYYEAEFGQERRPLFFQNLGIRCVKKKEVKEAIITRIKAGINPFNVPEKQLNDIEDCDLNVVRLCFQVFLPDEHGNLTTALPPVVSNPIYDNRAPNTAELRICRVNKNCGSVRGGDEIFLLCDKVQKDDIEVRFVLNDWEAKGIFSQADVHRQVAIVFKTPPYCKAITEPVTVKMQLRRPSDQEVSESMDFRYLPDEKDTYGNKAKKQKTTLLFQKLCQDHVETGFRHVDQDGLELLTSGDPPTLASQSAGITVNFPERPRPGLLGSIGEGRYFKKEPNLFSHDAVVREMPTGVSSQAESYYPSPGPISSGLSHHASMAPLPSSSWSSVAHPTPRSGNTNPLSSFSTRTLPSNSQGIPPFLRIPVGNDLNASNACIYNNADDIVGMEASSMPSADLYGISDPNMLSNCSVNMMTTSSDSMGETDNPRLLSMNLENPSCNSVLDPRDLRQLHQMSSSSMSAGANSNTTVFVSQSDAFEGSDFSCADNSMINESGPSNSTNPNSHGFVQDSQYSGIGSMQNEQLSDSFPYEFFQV
UniProt Q8WWW0: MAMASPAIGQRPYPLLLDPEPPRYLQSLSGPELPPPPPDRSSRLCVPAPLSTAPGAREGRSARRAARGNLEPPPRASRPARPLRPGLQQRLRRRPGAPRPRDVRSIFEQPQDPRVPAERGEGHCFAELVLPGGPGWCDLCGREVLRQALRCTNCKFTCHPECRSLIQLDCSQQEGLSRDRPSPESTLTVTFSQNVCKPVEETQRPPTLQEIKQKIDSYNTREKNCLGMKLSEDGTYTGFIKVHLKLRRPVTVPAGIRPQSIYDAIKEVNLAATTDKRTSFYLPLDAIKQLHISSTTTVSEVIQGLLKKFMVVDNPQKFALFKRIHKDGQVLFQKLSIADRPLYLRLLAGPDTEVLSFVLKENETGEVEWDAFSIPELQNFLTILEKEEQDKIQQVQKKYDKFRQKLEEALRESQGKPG
UniProt O60518: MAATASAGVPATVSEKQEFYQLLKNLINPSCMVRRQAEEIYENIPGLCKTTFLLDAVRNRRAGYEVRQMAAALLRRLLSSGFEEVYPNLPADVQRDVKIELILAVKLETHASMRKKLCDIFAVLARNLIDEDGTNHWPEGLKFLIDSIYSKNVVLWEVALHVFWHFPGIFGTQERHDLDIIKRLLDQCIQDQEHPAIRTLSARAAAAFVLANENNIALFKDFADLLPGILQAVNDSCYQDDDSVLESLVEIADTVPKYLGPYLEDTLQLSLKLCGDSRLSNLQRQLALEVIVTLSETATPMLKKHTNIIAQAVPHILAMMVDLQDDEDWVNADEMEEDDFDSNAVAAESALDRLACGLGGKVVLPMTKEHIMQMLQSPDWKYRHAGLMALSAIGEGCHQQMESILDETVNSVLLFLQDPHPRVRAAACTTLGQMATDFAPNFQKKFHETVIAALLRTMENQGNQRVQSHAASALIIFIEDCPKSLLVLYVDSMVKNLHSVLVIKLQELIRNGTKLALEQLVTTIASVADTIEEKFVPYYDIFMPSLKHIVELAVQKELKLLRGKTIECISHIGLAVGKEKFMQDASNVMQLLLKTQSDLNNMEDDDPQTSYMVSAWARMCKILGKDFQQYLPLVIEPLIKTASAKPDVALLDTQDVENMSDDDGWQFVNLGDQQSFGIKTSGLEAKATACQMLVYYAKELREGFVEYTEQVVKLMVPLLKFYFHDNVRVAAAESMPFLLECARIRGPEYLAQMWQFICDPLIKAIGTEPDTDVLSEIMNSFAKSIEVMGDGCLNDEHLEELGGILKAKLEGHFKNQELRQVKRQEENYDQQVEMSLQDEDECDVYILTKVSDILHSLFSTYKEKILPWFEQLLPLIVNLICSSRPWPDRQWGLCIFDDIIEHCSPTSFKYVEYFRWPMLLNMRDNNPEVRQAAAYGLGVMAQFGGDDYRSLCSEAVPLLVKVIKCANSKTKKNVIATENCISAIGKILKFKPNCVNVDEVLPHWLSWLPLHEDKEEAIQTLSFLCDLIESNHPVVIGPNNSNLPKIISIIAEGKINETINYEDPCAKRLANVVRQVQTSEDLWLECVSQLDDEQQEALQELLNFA
UniProt Q14644: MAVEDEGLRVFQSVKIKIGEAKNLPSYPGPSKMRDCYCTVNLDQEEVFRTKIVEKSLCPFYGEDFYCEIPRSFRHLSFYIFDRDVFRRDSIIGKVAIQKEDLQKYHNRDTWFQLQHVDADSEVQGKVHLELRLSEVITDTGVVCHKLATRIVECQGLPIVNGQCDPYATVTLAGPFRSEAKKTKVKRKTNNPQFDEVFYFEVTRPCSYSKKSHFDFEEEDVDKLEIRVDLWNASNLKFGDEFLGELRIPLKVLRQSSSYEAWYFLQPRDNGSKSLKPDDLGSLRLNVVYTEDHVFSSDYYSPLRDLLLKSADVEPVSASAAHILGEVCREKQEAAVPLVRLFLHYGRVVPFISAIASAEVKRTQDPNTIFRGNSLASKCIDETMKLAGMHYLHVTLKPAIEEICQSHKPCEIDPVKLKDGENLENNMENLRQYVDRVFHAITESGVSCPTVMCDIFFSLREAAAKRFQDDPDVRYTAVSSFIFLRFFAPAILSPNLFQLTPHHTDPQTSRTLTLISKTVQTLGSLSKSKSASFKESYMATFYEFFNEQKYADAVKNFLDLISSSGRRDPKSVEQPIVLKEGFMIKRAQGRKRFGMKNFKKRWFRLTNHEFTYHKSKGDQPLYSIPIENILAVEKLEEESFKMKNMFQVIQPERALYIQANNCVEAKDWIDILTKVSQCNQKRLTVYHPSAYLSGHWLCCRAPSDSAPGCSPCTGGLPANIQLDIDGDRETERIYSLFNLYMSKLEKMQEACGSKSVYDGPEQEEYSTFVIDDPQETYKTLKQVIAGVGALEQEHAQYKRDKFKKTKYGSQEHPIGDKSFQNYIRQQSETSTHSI
UniProt P40938, whole entry: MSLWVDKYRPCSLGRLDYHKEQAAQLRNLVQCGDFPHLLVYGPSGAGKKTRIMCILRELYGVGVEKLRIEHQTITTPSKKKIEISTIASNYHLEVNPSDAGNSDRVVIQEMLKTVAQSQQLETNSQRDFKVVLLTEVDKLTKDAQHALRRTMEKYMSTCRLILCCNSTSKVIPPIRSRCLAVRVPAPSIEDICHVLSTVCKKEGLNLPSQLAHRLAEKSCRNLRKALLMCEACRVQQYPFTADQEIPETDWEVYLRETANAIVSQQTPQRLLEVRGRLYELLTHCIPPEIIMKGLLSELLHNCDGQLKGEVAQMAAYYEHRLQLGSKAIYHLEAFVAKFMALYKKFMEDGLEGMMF
UniProt Q8ND24: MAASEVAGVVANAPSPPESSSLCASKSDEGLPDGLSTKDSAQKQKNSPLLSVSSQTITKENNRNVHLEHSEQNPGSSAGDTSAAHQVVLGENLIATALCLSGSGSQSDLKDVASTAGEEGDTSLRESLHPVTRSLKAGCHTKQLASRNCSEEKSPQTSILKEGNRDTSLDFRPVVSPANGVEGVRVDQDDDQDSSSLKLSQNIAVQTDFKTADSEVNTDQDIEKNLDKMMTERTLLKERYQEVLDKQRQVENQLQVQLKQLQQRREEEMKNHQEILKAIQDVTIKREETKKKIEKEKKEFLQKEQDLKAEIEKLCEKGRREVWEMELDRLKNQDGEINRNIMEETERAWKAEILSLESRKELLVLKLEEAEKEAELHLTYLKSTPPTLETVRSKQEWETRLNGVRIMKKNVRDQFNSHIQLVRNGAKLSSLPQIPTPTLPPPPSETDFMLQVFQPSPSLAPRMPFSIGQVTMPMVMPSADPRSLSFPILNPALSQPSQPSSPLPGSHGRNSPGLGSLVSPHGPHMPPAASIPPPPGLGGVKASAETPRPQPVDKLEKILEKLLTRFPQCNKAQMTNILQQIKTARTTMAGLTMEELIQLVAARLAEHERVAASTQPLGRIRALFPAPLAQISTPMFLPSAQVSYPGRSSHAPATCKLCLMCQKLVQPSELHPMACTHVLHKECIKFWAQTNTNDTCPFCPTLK
UniProt Q9UHX1: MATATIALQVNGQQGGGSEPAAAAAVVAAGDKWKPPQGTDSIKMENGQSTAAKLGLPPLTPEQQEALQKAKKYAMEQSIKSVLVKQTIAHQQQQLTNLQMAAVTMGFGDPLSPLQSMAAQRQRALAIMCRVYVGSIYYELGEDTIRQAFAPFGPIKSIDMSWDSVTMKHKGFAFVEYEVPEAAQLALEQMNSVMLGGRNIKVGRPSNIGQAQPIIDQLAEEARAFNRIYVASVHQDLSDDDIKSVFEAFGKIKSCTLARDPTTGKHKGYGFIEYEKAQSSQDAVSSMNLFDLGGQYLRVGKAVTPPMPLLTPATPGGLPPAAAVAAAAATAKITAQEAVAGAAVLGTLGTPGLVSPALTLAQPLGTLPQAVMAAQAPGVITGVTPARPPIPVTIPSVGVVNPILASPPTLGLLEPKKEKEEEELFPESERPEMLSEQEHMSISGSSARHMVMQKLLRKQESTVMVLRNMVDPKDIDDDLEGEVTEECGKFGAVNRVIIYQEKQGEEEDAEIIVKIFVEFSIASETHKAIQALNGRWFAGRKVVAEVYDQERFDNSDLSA

Compound: COc1ccc(Cn2ccc3cc(C)c(C(=O)NO)cc32)cc1
Assay: dose-dependent thermal stabilisation call (2D-TPP, DLPTP, 10% FDR) (binary (1 = stabilised)); higher = stabilised by the compound
Conditions: system: HL-60 intact cells; concentration range 0.04-10 µM
Procedure: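 2D thermal proteome profiling in intact HL-60 cells treated with BRD-3811 (0, 0.04, 0.29, 2, 10 uM) for 90 min at 37 C, then heated 3 min at one of 12 temperatures (42-63.9 C). Soluble protein was quantified by TMT10 MS. The value is the DLPTP call of the paper: dose-dependent thermal stabilisation over all temperatures at 10% FDR (F-test of a dose-response against a flat model); one experiment, one call per tested protein.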

| Target | dose-dependent thermal stabilisation call |
| --- | --- |
| RASA1 (UniProt P20936) | inactive: 0 |
| RNF138 (UniProt Q8WVD3) | inactive: 0 |
| RAB6B (UniProt Q9NRW1) | inactive: 0 |
| RNASEH2C (UniProt Q8TDP1) | inactive: 0 |
| RAD51AP1 (UniProt Q96B01) | inactive: 0 |
| PXMP2 (UniProt Q9NR77) | inactive: 0 |
| PUSL1 (UniProt Q8N0Z8) | inactive: 0 |
| RELL1 (UniProt Q8IUW5) | inactive: 0 |
| RHOG (UniProt P84095) | inactive: 0 |
| RINT1 (UniProt Q6NUQ1) | inactive: 0 |
| RBBP4 (UniProt Q09028) | inactive: 0 |
| RB1 (UniProt P06400) | inactive: 0 |
| RASGRP2 (UniProt Q7LDG7) | inactive: 0 |
| REEP5 (UniProt Q00765) | inactive: 0 |
| RIC8A (UniProt Q9NPQ8) | inactive: 0 |
| RBM38 (UniProt Q9H0Z9) | inactive: 0 |
| PYROXD1 (UniProt Q8WU10) | inactive: 0 |
| RAD51C (UniProt O43502) | inactive: 0 |
| RANBP1 (UniProt P43487) | inactive: 0 |
| RCSD1 (UniProt Q6JBY9) | inactive: 0 |

3 neighbouring records out of the list so far, for reference:

| Target | dose-dependent thermal stabilisation call |
| --- | --- |
| PUSL1 (UniProt Q8N0Z8) | inactive: 0 |
| RELL1 (UniProt Q8IUW5) | inactive: 0 |
| RHOG (UniProt P84095) | inactive: 0 |

Additional records.

| Target | dose-dependent thermal stabilisation call |
| --- | --- |
| REL (UniProt Q04864) | inactive: 0 |
| RASSF5 (UniProt Q8WWW0) | inactive: 0 |
| R3HDM1 (UniProt Q15032) | inactive: 0 |
| RAB7A (UniProt P51149) | inactive: 0 |
| RG9MTD1 (UniProt Q7L0Y3) | inactive: 0 |
| RABGGTA (UniProt Q92696) | inactive: 0 |
| RBM28 (UniProt Q9NW13) | inactive: 0 |
| RAPGEF2 (UniProt Q9Y4G8) | inactive: 0 |
| RANBP6 (UniProt O60518) | inactive: 0 |
| RASA3 (UniProt Q14644) | inactive: 0 |
| RFC3 (UniProt P40938) | inactive: 0 |
| RCCD1 (UniProt A6NED2) | inactive: 0 |
| RBM10 | inactive: 0 |
| QPCTL (UniProt Q9NXS2) | inactive: 0 |
| RAVER1 (UniProt Q8IY67) | inactive: 0 |
| RNF214 (UniProt Q8ND24) | inactive: 0 |
| RFC2 (UniProt P35250) | inactive: 0 |
| PUF60 (UniProt Q9UHX1) | inactive: 0 |
| RDX (UniProt P35241) | inactive: 0 |
| RAP2A (UniProt P10114) | inactive: 0 |
